Laboratory results from patent US12377112B2, “Methods of treating neurocognitive disorders, chronic pain and reducing inflammation” (priority 2019, dated 2025).
Entries after “also recorded” stand apart in the source; their conditions may differ. For at least one compound, name, drawing or mass did not settle the structure.

How the values were obtained:
[1] = General properties of psilocybin Polymorph A or A′: solubility in water, hygroscopicity; format: physicochemical
healthy subjects = test: Phase 1 study: Life Changes Inventory (LCI); format: in vivo, human
Source text: In some embodiments, the Life Changes Inventory (LCI) questionnaire is utilized to evaluate the safety and/or efficacy of psilocybin. The LCI is designed as a questionnaire to investigate those variables present in the day-to-day experience of adults that might relate either to stability or decline of intellectual ability.
The following list of outcome measures are non-exhaustive: • a. The short-term change from Baseline (Day −1 [Visit 2]) to Day 7 (Visit 5) in cognitive measures of attention, spatial and working memory and executive function was measured by a composite score of the CANTAB Panel (Spatial Working Memory [SWM], Rapid Visual Information Processing [RVP], Paired Associates Learning [PAL]). • b. The short-term change from Baseline (Day −1 [Visit 2]) to Day 7 (Visit 5) in Social Cognition Panel scales (Pictorial Empathy Test [PET], Reading the Mind in the eyes Test [RMET], Toronto Empathy Questionnaire [TEQ], Social Value Orientation [SVO], Scale of Social Responsibility [SSR]). • c. The change from Baseline (Day −1 [Visit 2]) to Day 28 (Visit 6) in cognitive measures of attention, spatial and working memory and executive function as measured by a composite score of the CANTAB Panel (SWM, RVP, PAL). • d. […] Dose-related differences between cognitive effects of psilocybin at Baseline (Day −1 [Visit 2]), Day 7 (Visit 5) and Day 28 (Visit 6), as measured by a composite score of the CANTAB Panel (SWM, RVP, PAL). • f. Dose-related differences between psychological effects of psilocybin at Baseline (Day −1 [Visit 2]), Day 7 (Visit 5) and Day 84 (Visit 7), as measured by Social Cognition Panel scales (PET, RMET, TEQ, SVO, SSR). • g. Differences in cognitive effects of psilocybin between psilocybin-naïve and experienced subjects at Baseline (Day −1 [Visit 2]), Day 7 (Visit 5) and Day 28 (Visit 6), as measured by a composite score of the CANTAB Panel (SWM, RVP, PAL). • h. […] Reading the Mind in the Eyes Test (RMET) (performed at Visit 2, Visit 5, and Visit 7). • iii. […]

[2] = test system: healthy psychedelic-naïve participants; details: human, in vivo
[3] = test system: TNFα, IL-6, IL1-b and IL-10; test: LPS-induced cytokine secretion (TNFα, IL-6, IL-1β, IL-10 in plasma); format: in vivo, rat; details: pre-treatment 1, 3 and 10 mg/kg i.p.

**Q.** Which results are given for `CN(C)CCc1c[nH]c2cccc(OP(=O)(O)O)c12` [Psilocybin, psilocybin]?
**A.** Hygroscopicity [1]: Psilocybin forms Hydrate A at high; LCI domain scores Appreciation for Life, Self-Acceptance, Concern for Others, Quest for Meaning (healthy subjects; 25 mg and 10 mg): increase; LCI absolute change compared to placebo (healthy subjects; each dose (10 mg, 25 mg), Day 7 and Day 84): higher absolute change in LCI; also recorded: increase; LCI domains, differences 10 mg versus 25 mg (healthy subjects; either timepoint): not statistically significant; FERT: recognising the expression of disgust (reaction time) compared to baseline [2]: significantly faster; LPS-induced IL-1β level [3]: significant reduction; LPS-induced IL-6 level [3]: slight reduction; LPS-induced IL-10 level [3]: significant reduction; LPS-induced TNFα level [3]: slight reduction
